Record: PubChem BioAssay AID504784 (Drosophila RNAi Screening Center, 2011)

Purpose: 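Genome-wide knock-down for genes giving too much or too little stored lipid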 (primary screen)
Cells: Drosophila Kc167 embryonic cells
Knock-down reagent: long dsRNA against Drosophila genes, about 250 ng dsRNA per well
Duration: 4 days
Conditions: cells fed 400 µM oleic acid bound to BSA
Measured: 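Microscope images give a droplet-to-nucleus area ratio, taken as log and converted to a screen-wide B-score; higher values mean greater lipid storage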
Reading the numbers: droplet/nuclear area B-score: higher = more stored lipid (overstorage)
The screen tested about 17,000 reagents; below is a random part of those with a known target gene and a result. 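Each column is one replicate's B-score; the combined score over replicates was not deposited, so single values may mislead.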 Names joined by + are all predicted targets of the reagent.

| predicted target | DRSC id | droplet/nuclear area B-score, replicate 1 | droplet/nuclear area B-score, replicate 2 | droplet/nuclear area B-score, replicate 3 |
| --- | --- | --- | --- | --- |
| Stim | DRSC20158 | 0.553 | -0.113 | -0.928 |
| Cpsf6 | DRSC10781 | 3.88 | 4.06 | – |
| CG12842 (retired record) | DRSC06188 | 0.0138 | -1.51 | – |
| CG12672 | DRSC19482 | 0.912 | -1.57 | -0.416 |
| CG8152 | DRSC07083 | 0.143 | 0.807 | – |
| CG34169 | DRSC01579 | 1 | 0.446 | – |
| CPT2 | DRSC08553 | 0.121 | -1.62 | – |
| CG31788 | DRSC01630 | 1.27 | 0.209 | – |
| mRpS10 | DRSC15557 | -0.037 | -0.0251 | – |
| TwdlC | DRSC14749 | -3.31 | 0.104 | – |
| Panx | DRSC04563 | – | -1.58 | – |
| Npc2c | DRSC15523 | -0.0719 | -0.899 | – |
| Pmm2 | DRSC09780 | 0.0139 | 0.47 | – |
| GlcAT-I | DRSC17307 | -0.922 | -0.0508 | – |
| CG14190 | DRSC19545 | 1 | 1.06 | – |
| CG13159 | DRSC06283 | -0.0386 | -1.14 | -1.29 |
| ssx | DRSC18492 | -0.399 | – | – |
| Orc5 | DRSC03390 | 0.0373 | -0.642 | – |
| Nop60B | DRSC04627 | 0.0836 | 0.368 | – |
| CG17778 | DRSC18504 | 0.048 | 2.58 | – |
| Sox21a | DRSC10819 | 0.0509 | -0.00327 | – |
| Gr33a | DRSC02589 | -0.885 | -0.0707 | – |
| Fib | DRSC04614 | -0.0475 | -2.49 | – |
| CG30031 + deltaTry + CG30025 + 1 more | DRSC21262 | 1.07 | -0.000231 | – |
| CG15572 | DRSC18060 | -0.441 | -0.177 | – |
| TwdlK | DRSC16045 | 1.18 | -0.48 | – |
| CG13362 | DRSC17897 | -0.264 | 0.158 | – |
| FASN1 | DRSC00268 | -0.136 | -1.44 | – |
| CG34159 | DRSC02885 | -0.343 | 0.436 | – |
| CG34159 | DRSC23222 | -0.681 | 0.49 | – |
| chic | DRSC03507 | -0.0586 | -0.392 | – |
| Ir31a | DRSC22358 | 0.384 | -0.0702 | – |
| CG42565 | DRSC04154 | 0.757 | -0.638 | – |
| Ir64a | DRSC09759 | 0.431 | -0.647 | – |
| Ir64a | DRSC09760 | -0.58 | -1.22 | – |
| Tim8 | DRSC20291 | 0.298 | 0.43 | -0.0242 |
| CG11267 | DRSC09833 | 0.737 | 0.262 | – |
| fsd | DRSC06166 | -1.4 | 1.22 | – |
| CG32086 | DRSC10586 | -0.761 | -0.0279 | – |
| kappaTry | DRSC06146 | -1.08 | -1.66 | – |
| CG4763 | DRSC04009 | -1.44 | -0.539 | – |
| CG4763 | DRSC04487 | 0.289 | -0.688 | – |
| CG13630 | DRSC14631 | -2.85 | 0.462 | – |
| PGRP-LB | DRSC14926 | 1.72 | -0.0282 | – |
| Ir84a | DRSC12510 | -1.17 | 0.867 | – |
| Sox21b | DRSC10025 | -1.09 | 0.268 | 0.0202 |
| Sox21b | DRSC10634 | -0.0584 | 0.338 | – |
| Sox21b | DRSC22788 | 0.383 | -3.81 | – |
| Sox21b | DRSC23005 | -2.11 | -1.44 | – |
| Cyp6w1 | DRSC04909 | -1.09 | -0.518 | – |
| lov | DRSC04279 | -0.482 | -0.546 | – |
| lov | DRSC04665 | 0.916 | -0.513 | 0.381 |
| Spn28Da | DRSC02162 | -0.923 | 0.567 | – |
| DCX-EMAP | DRSC10012 | 1.16 | -0.102 | – |
| DCX-EMAP | DRSC10013 | -0.818 | 4.02 | – |
| CG8664 | DRSC20116 | -1.28 | 0.00715 | – |
